This is one part of the list. The main result of the screen is listed elsewhere. These columns were measured beside it and carry no call.
Assays:
[1] = growth inhibition of wild-type GFP E. coli, dose response, h38 mutant RFP, cherry-pick (AID 977622); details: E. coli mixed culture, 24 h, total growth OD600 at 50 uM
[2] = system: E. coli h38 humanized mutant ribosome RFP fluorescence, mixed culture, 24 h; assay: as above; details: h38 mutant RFP at 50 uM

Structure (SMILES) | activity change [1] [%] | activity change [2] [%]
CC(=O)Nc1cccc(-c2ccnc3c2CC(C(=O)Nc2ccc4c(c2)OCO4)O3)c1 (stereo not drawn) | -48 | -2.42
C[C@@H]1CCCCO[C@@H](CN(C)C)[C@@H](C)CN([C@H](C)CO)C(=O)c2cc(NC(=O)Nc3cccc4ccccc34)ccc2O1 | -5.44 | 12.7
Cc1cc(C)cc(NC(=O)c2cccc(NC(=O)C3C4CC5OC(=O)C3C5C4)c2)c1 (stereo not drawn) | -36 | 3.12
Cc1ccc(NC(=O)C[n+]2cc(-c3ccccc3)n3c2CCC3)c(C)c1 | -6.83 | -10.4
C[C@@H]1CN([C@@H](C)CO)C(=O)c2cc(NS(=O)(=O)c3ccccc3)ccc2O[C@@H]1CN(C)Cc1ccc(C(=O)Nc2ccccc2N)cc1 | -38 | -13.4
O=S(=O)(NCc1ccc2c(c1)OCO2)c1ccc2c(c1)oc1ccccc12 | -59.8 | -31.7
O=[N+]([O-])c1cccnc1N1CCN(c2ccccc2F)CC1 | -64.6 | 39.5
O=C(O)c1cc([N+](=O)[O-])ccc1NCCc1ccccc1 | -70.5 | 0.667
COc1ccc(Cn2c(-c3ccc(Br)cc3)c[n+]3ccccc23)cc1 | -35.9 | 43.7
S=C1SCN(Cc2cccnc2)CN1Cc1ccccc1 | -27.8 | 8.74
O=C(O)c1cc(-c2cccs2)nn1-c1cccc(Cl)c1 | -42.3 | -22
COc1cccc(S(=O)(=O)N2CCCCN3[C@H](CO)[C@@H](c4ccc(C#CC(C)C)cc4)[C@@H]3C2)c1 | -15.9 | 14.2
Cn1cnc(CCNC(=O)C[C@H]2CC[C@@H]3[C@H](COC[C@H](O)CN3C(=O)Nc3ccc(Cl)cc3)O2)c1 | -9.09 | 15.2
COc1cc2c(cc1OC)C1(C)N(CC2)C(C(C)=O)=NN1c1ccc(Cl)cc1 (stereo not drawn) | -10.1 | -0.026
c1ccc(-c2nc3c4ccccc4ccn3c2CN2CCOCC2)cc1 | -31.3 | 
NC(=O)c1ccsc1NC(=O)COC(=O)CSc1ccc(Cl)cc1 | -39.1 | -11
O=C(Nc1cccnc1)c1ccc([N+](=O)[O-])o1 | -7.47 | 
CCCOC(=O)c1ccc(NC(=O)c2nc3nc(C)cc(C)n3n2)cc1 | -3.07 | -9.63
CCCCNC(=O)C[C@@H]1C[C@@]2(C(=O)OC)CCCCC=C2N(Cc2ccccc2)C1=O | -21.1 | -6.6
Cc1cc(Br)cn2c(Cc3cccc(Cl)c3)c(-c3ccco3)nc12 | 1.55 | 7.29
Cc1cccc(C)c1NC(=O)C1(C)CSCC(=O)N1CCOc1ccccc1 (stereo not drawn) | -26.2 | -27
COc1ccc(C2CC(=O)CCN2S(=O)(=O)c2ccc(C)cc2)cc1 (stereo not drawn) | -29.6 | -14.5
CN(C)C(CNc1ncnc2sc3c(c12)CCCCC3)c1ccco1 (stereo not drawn) | -45.8 | -27.3

Four entries out of the list, arranged by heavy-atom count, falling.
Structure (SMILES) | activity change [1] [%] | activity change [2] [%]
Cc1cccc(C)c1NC(=O)C1(C)CSCC(=O)N1CCOc1ccccc1 (stereo not drawn) | -26.2 | -27
NC(=O)c1ccsc1NC(=O)COC(=O)CSc1ccc(Cl)cc1 | -39.1 | -11
O=[N+]([O-])c1cccnc1N1CCN(c2ccccc2F)CC1 | -64.6 | 39.5
O=C(O)c1cc([N+](=O)[O-])ccc1NCCc1ccccc1 | -70.5 | 0.667

Following part:

Structure (SMILES) | activity change [1] [%] | activity change [2] [%]
COc1ccccc1-c1noc2ncnc(Nc3cccc(C)c3C)c12 | -5.35 | 25.3
COc1ccc(CCNc2nc(-c3ccncc3)cs2)cc1OC | -41.6 | 
CCn1cc(Cl)c(C(=O)Nc2cccc(C(F)(F)F)c2)n1 | -8.19 | -14.2
O=C(Nc1cccc(F)c1)N1[C@@H]2CNC[C@H]1C2c1ccc(-c2ccncc2)cc1 (stereo partly drawn) | 0.755 | 17.2
Cc1ccc(NC(=O)c2ccc(Br)o2)cc1S(=O)(=O)N(C)C | -28.9 | -22.5
O=C1c2ccccc2C(c2nnnn2C2CCCCC2)N1CCc1ccc(O)cc1 (stereo not drawn) | -11 | -8.19
CCOC(=O)c1ccc(NC(=O)c2ccc(OC(C)C)c(OC)c2)cc1 | -23.9 | -3.87
Cn1c(=O)c2c(ncn2CC(O)CNc2ccc(F)cc2)n(C)c1=O (stereo not drawn) | 0.765 | 2.96
CCOC(=O)c1cccc(OS(=O)(=O)Cc2ccccc2)c1 | -31.9 | -6.5
CCOC(=O)c1sc2nc(NC(=O)C(C)(C)C)sc2c1C | -95.8 | -54.7
O=C(c1cccs1)c1sccc1Cc1ccccc1 | -50.4 | 3.21
CC(=O)N1CCOc2ccc(S(=O)(=O)N(C)c3ccc(C)cc3)cc21 | -13.2 | -21.5
Cc1cccc(S(=O)(=O)N2CCCCN3[C@@H](CO)[C@H](c4ccc(C#CC(C)C)cc4)[C@@H]3C2)c1 | -84.9 | 145
Cc1cc2nc(-c3ccc4c(c3)CCC4)ccn2n1 | -25.9 | 
O=S(=O)(c1cnc(Cl)c(Cl)c1)N1CCCc2ccccc21 | -53.6 | -31
N#Cc1ccccc1CSc1nc2ccc(NC(=O)c3ccccc3C(=O)O)cc2s1 | -23.1 | -30.2
Cc1[nH]nc2c1C(c1ccc(F)cc1)N(Cc1ccccc1)C2=O (stereo not drawn) | -26 | -12.6
COc1ccc(NC(=O)Nc2cccc3c2O[C@H](CN(C)S(=O)(=O)c2ccc(C)cc2)[C@H](C)CN([C@@H](C)CO)C3=O)cc1 | -36.9 | -21.5
COc1ccc(Nc2oc(-c3ccco3)nc2S(=O)(=O)c2ccc(F)cc2)cc1 | -10.3 | 
COc1cccc(C(=O)Nc2cc(C)nn2-c2ccccc2)c1OC | -57 | -28.9
C=CCn1c(-c2sc(-c3ccccc3)nc2C)n[nH]c1=S | -41.6 | -25.3
O=[N+]([O-])c1ccccc1CN1CCN(S(=O)(=O)c2ccccc2)CC1 | -40.9 | -23
O=C(Nc1ccc2c(c1)OCO2)c1cc(-c2ccncc2)nc2ccccc12 | -47.3 | -23.3

Structure (SMILES) | activity change [1] [%] | activity change [2] [%]
CCn1cc(Br)c(C(=O)Nc2ccc(C(=O)OC(C)C)cc2)n1 | -23.1 | -19.7
CC(=O)Oc1ccc(N(C(C)=O)S(=O)(=O)c2ccc(Cl)cc2)c2ccccc12 | -6.76 | 11.2
CC(C)CC#Cc1ccc([C@@H]2[C@H](CO)N3CCCCN(S(=O)(=O)c4ccc(F)cc4)C[C@@H]23)cc1 | -53.1 | 49.2
CC(C)NC(=O)N(C)C[C@H]1OCCCC[C@@H](C)Oc2ccc(NC(=O)Nc3cccc4ccccc34)cc2C(=O)N([C@@H](C)CO)C[C@H]1C | -4.38 | 16.2
O=C(CSCc1c(Cl)cccc1Cl)Nc1cccnc1 | -15.4 | 
O=C(Nc1ccc(Nc2ccccc2)cc1)c1ccc(Cl)cc1[N+](=O)[O-] | -81.4 | 106
C[C@H](CO)N1C[C@H](C)[C@H](CN(C)C)OCCCC[C@H](C)Oc2ccc(NC(=O)Nc3cccc4ccccc34)cc2C1=O | 3.16 | 12
Cn1c(SCCOc2ccccc2F)nc2ccccc2c1=O | -74.1 | 
COC(=O)c1c(NC(=O)c2ccccc2C(=O)O)sc2c1CCC2 | -34.3 | 
CCn1c(SCC(=O)Nc2ccc(OC)cc2)nc2nc3c(cc2c1=O)CCCC3 | -39.3 | -25.9
Cc1ccc(Oc2ccc(S(=O)(=O)N3CCOCC3)cc2C(N)=O)cc1C |  | -39.6
C[C@@H](NC(=O)C[C@@H]1CC[C@@H]2[C@H](COC[C@H](O)CN2C(=O)Nc2cccc(F)c2)O1)c1ccccc1 | 4.78 | 21.8
Cc1nc([N+](=O)[O-])c(Br)n1CC(=O)c1ccc(F)cc1 | -15.5 | -24.5
Cc1ccc(S(=O)(=O)Nc2ccccc2CNc2ccccn2)cc1 | -66.9 | 36
CC1(C)c2ccccc2C(=O)c2ccccc21 | -45.1 | -12.5
CCc1cc(C(=O)N2CCCC(C(=O)c3cccc4ccccc34)C2)n(C)n1 (stereo not drawn) | -22.8 | 15
Brc1ccc(-n2cnc(-c3ccccc3)c2)cc1 |  | -31.6
C[C@H]1CCCCO[C@H](CN(C)C(=O)CCCN(C)C)[C@@H](C)CN([C@@H](C)CO)C(=O)c2cc(NC(=O)Nc3cccc4ccccc34)ccc2O1 | -5.75 | 
COc1ccc(-n2ccnc2SCC(=O)NCc2ccccc2)c(OC)c1 | -24.8 | 42.8
O=C(CC(c1ccccc1)c1cc(Br)ccc1O)N1CCCC1 (stereo not drawn) | -66.9 | 
CC(C)Oc1nc(-c2ccccc2Cl)nc2ccccc12 | -0.552 | 14.8
CN1N=C2c3ccccc3CCC2C1c1ccc(F)cc1 (stereo not drawn) | -4.84 | -14.5
CN(C)CCCN(C(=O)c1ccc(S(=O)(=O)N(C)Cc2ccccc2)cc1)c1nc2c(F)cccc2s1 | -48.4 | -31.9

Structure (SMILES) | activity change [1] [%] | activity change [2] [%]
CCOC(=O)C(CC)Sc1cc(C)nc2ccc(OC)cc12 (stereo not drawn) | -18.4 | -12.2
CN(Cc1ccc([N+](=O)[O-])cc1)c1ccccc1 | -18.1 | -13.1
CCOc1ccccc1NS(=O)(=O)c1ccc(Br)s1 | -41.1 | 20.8
COc1cccc(-c2ccc(NC(=O)C3CCCN(Cc4cnn(C(C)C)c4)C3)cc2)c1 (stereo not drawn) | -35.9 | -27.9
Cc1ccc(-n2ncc3c(SCc4ccccn4)ncnc32)c(C)c1 | -83.5 | 0.698
CCCn1c(=O)c2ccccc2n2c(SCCOc3ccc(OC)cc3)nnc12 | -20.5 | -7.27
O=C(CCc1ccccc1)Nc1sc2c(c1C(=O)O)CCCC2 | -47.4 | 
Cc1ccc(-c2n[nH]c(S(C)(=O)=O)c2C#N)cc1 | -17.3 | 7
CCN(CC)C(=O)c1ccc(COc2ccccc2Cl)o1 | -38.6 | -39
CC(CNc1ccc(Cl)cc1)(CNc1ccc(Cl)cc1)[N+](=O)[O-] | -35.5 | -16.9
CC(C)Oc1ccc(C(=O)Nc2cccc3cccnc23)cc1 | -15.8 | 
Nc1c(Cl)cc(C2=NCCn3nc4ccccc4c32)cc1Cl | -57.7 | -54.6
C[C@@H]1CN([C@H](C)CO)C(=O)c2cccc(NC(=O)c3ccncc3)c2O[C@@H]1CN(C)S(=O)(=O)c1ccc(Cl)cc1 | -39.9 | -36.3
Cc1cc(Br)ccc1NC(=O)c1ccco1 | -11.2 | -12.7
CCc1c(N=O)c(-c2ccccc2)n(O)[n+]1[O-] | -9.06 | -25
Cc1nnn(C23C[C@@H]4C[C@@H](CC(C(=O)N5CCN(c6ccccc6)CC5)(C4)C2)C3)n1 | -45.4 | -13.2
Cc1cc(C(=O)c2ccc3ccccc3c2)c(C)o1 | -26.2 | 0.982
CCOc1ccc(S(=O)(=O)N(C)c2ccc(OCC(=O)NCc3cccnc3)cc2)cc1 | -21 | -6.93
COc1ccc(S(=O)(=O)N(C)C)cc1NC(=O)c1ccc2c(c1)NC(=O)C(C)S2 (stereo not drawn) | -31.7 | -14.8
CC(=O)OC(COc1cccc(C)c1)Cn1cnc2ccccc21 (stereo not drawn) | -47.6 | 
